Measured values published in patent US20150283147A1, “TREATING POLYCYSTIC KIDNEY DISEASE WITH HSP90 INHIBITORY COMPOUNDS” (SYNTA PHARMACEUTICALS CORP., priority 2012, published 2015).
For some assays here: For at least one compound, name, drawing or mass did not settle the structure. Some results were stated once for a whole list of compounds, not compound by compound.

test system: BCR-ABL; assay: not given; details: cited from earlier work

| Structure (SMILES) | apoptosis in BCR-ABL leukemia cells | proteasomal degradation of BCR-ABL |
| --- | --- | --- |
| COC1=C2C[C@@H](C)C[C@H](OC)[C@H](O)[C@@H](C)/C=C(\C)[C@H](OC(N)=O)[C@@H](OC)/C=C\C=C(/C)C(=O)NC(=CC1=O)C2=O [geldanamycin] | induces apoptosis | results in proteasomal degradation of BCR-ABL |

test system: Hsp90; assay: IC50 range of compounds for inhibition of Hsp90 / Her2 degradation (Method 2: MV-4-11 cell survival, Cell Counting Kit-8); type: cell-based; details: title: inhibition of Hsp90, text: Her2 degradation, method: MV-4-11 cells, 72 hours

| Structure (SMILES) | IC50 |
| --- | --- |
| COc1ccc(-n2c(C(N)=O)nnc2-c2cc(C(C)C)c(O)cc2O)cc1NC(C)=O [Compound 6, 4-(3-acetamido-4-methoxyphenyl)-5-(2,4-dihydroxy-5-isopropylphenyl)-4H-1,2,4-triazole-3-carboxamide] | ≤ 20 nM |
| CC(C)c1cc(-c2nnc(C(N)=O)n2-c2ccc(Cc3ccccn3)cc2)c(O)cc1O [Compound 11, 5-(2,4-dihydroxy-5-isopropylphenyl)-4-(4-(pyridin-2-ylmethyl)phenyl)-4H-1,2,4-triazole-3-carboxamide] | ≤ 20 nM |
| CC(C)c1cc(-c2nnc(C(N)=O)n2-c2ccc(CN3CCOCC3)cc2)c(O)cc1O [Compound 15, 5-(2,4-dihydroxy-5-isopropylphenyl)-4-(4-(morpholinomethyl)phenyl)-4H-1,2,4-triazole-3-carboxamide] | ≤ 20 nM |
| CC(C)c1cc(-c2nnc(C(=O)N3CCOCC3)n2-c2ccc(N3CCOCC3)nc2)c(O)cc1O [Compound 25, (5-(2,4-dihydroxy-5-isopropylphenyl)-4-(6-morpholinopyridin-3-yl)-4H-1,2,4-triazol-3-yl)(morpholino)methanone] | > 1000 nM |
| CC(C)c1cc(-c2nnc(C(=O)N3CCCC3)n2-c2ccc(N3CCOCC3)nc2)c(O)cc1O [Compound 27, (5-(2,4-dihydroxy-5-isopropylphenyl)-4-(6-morpholinopyridin-3-yl)-4H-1,2,4-triazol-3-yl)(pyrrolidin-1-yl)methanone] | > 1000 nM |
| CC(C)c1cc(-c2nnc(C(N)=O)n2Cc2ccc3c(c2)OCO3)c(O)cc1O [Compound 28, 4-(benzo[d][1,3]dioxol-5-ylmethyl)-5-(2,4-dihydroxy-5-isopropylphenyl)-4H-1,2,4-triazole-3-carboxamide] | ≤ 20 nM |
| CC(C)c1cc(-c2nnc(C(N)=O)n2Cc2ccc(C(C)O)cc2)c(O)cc1O (centres unmarked) [Compound 29, 5-(2,4-dihydroxy-5-isopropylphenyl)-4-(4-(1-hydroxyethyl)benzyl)-4H-1,2,4-triazole-3-carboxamide] | ≤ 20 nM |
| CC(C)c1cc(-c2nnc(C(N)=O)n2-c2ccc(NS(C)(=O)=O)cc2)c(O)cc1O [Compound 30, 5-(2,4-dihydroxy-5-isopropylphenyl)-4-(4-(methylsulfonamido)phenyl)-4H-1,2,4-triazole-3-carboxamide] | ≤ 20 nM |
| CC(C)c1cc(-c2nnc(SCc3cccnc3)n2-c2ccc3c(c2)CCC3)c(O)cc1O [Compound 32, 4-(4-(2,3-dihydro-1H-inden-5-yl)-5-(pyridin-3-ylmethylthio)-4H-1,2,4-triazol-3-yl)-6-isopropylbenzene-1,3-diol] | > 1000 nM |
| CC(C)c1cc(-c2nnc(SCc3ccncc3)n2-c2ccc3c(c2)CCC3)c(O)cc1O [Compound 33, 4-(4-(2,3-dihydro-1H-inden-5-yl)-5-(pyridin-4-ylmethylthio)-4H-1,2,4-triazol-3-yl)-6-isopropylbenzene-1,3-diol] | > 1000 nM |
| CCN(CC)c1ccc(-n2c(SCc3cccnc3)nnc2-c2cc(C(C)C)c(O)cc2O)cc1 [Compound 35, 4-(4-(4-(diethylamino)phenyl)-5-(pyridin-3-ylmethylthio)-4H-1,2,4-triazol-3-yl)-6-isopropylbenzene-1,3-diol] | > 1000 nM |
| CC(C)c1cc(-c2nnc(SCc3ccccn3)n2-c2ccccc2)c(O)cc1O [Compound 36, 4-isopropyl-6-(4-phenyl-5-(pyridin-2-ylmethylthio)-4H-1,2,4-triazol-3-yl)benzene-1,3-diol] | > 1000 nM |
| CCN(CC)c1ccc(-n2c(SCc3ccccn3)nnc2-c2cc(C(C)C)c(O)cc2O)cc1 [Compound 37, 4-(4-(4-(diethylamino)phenyl)-5-(pyridin-2-ylmethylthio)-4H-1,2,4-triazol-3-yl)-6-isopropylbenzene-1,3-diol] | > 1000 nM |
| CCN(CC)c1ccc(-n2c(SCc3ccncc3)nnc2-c2cc(C(C)C)c(O)cc2O)cc1 [Compound 38, 4-(4-(4-(diethylamino)phenyl)-5-(pyridin-4-ylmethylthio)-4H-1,2,4-triazol-3-yl)-6-isopropylbenzene-1,3-diol] | > 1000 nM |
| CC(C)c1cc(-c2nnc(SCc3ccncc3)n2-c2ccccc2)c(O)cc1O [Compound 39, 4-isopropyl-6-(4-phenyl-5-(pyridin-4-ylmethylthio)-4H-1,2,4-triazol-3-yl)benzene-1,3-diol] | > 1000 nM |
| COc1ccc(-n2c(C(N)=O)nnc2-c2cc(C(C)C)c(O)cc2O)cc1 [Compound 46, 5-(2,4-dihydroxy-5-isopropylphenyl)-4-(4-methoxyphenyl)-4H-1,2,4-triazole-3-carboxamide] | ≤ 20 nM |
| CC(C)c1cc(-c2nnc(C(N)=O)n2-c2ccc3[nH]ccc3c2)c(O)cc1O [Compound 63, 5-(2,4-dihydroxy-5-isopropylphenyl)-4-(1H-indol-5-yl)-4H-1,2,4-triazole-3-carboxamide] | ≤ 20 nM |
| COCCN(C)c1ccc(-n2c(C(N)=O)nnc2-c2cc(C(C)C)c(O)cc2O)cn1 [Compound 65, 5-(2,4-dihydroxy-5-isopropylphenyl)-4-(6-((2-methoxyethyl)(methyl)amino)pyridin-3-yl)-4H-1,2,4-triazole-3-carboxamide] | ≤ 20 nM |
| CCN(C)Cc1ccc(-n2c(C(N)=O)nnc2-c2cc(C(C)C)c(O)cc2O)cc1 [Compound 67, 5-(2,4-dihydroxy-5-isopropylphenyl)-4-(4-((ethyl(methyl)amino)methyl)phenyl)-4H-1,2,4-triazole-3-carboxamide] | ≤ 20 nM |
| CC(C)c1cc(-c2nnc(C(=O)NCCN(C)C)n2-c2ccc3c(c2)OCO3)c(O)cc1O [Compound 69, 4-(benzo[d][1,3]dioxol-5-yl)-5-(2,4-dihydroxy-5-isopropylphenyl)-N-(2-(dimethy!amino)ethyl)-4H-1,2,4-triazole-3-carboxamide] | ≤ 20 nM |
| CCOC(=O)c1nnc(-c2cc(C(C)C)c(O)cc2O)n1-c1ccc2c(c1)OCO2 [Compound 72, ethyl 4-(benzo[d][1,3]dioxol-5-yl)-5-(2,4-dihydroxy-5-isopropylphenyl)-4H-1,2,4-triazole-3-carboxylate] | > 1000 nM |
